Reference: doi:10.1101/792705
These are yes or no findings as the source states them, for the method shown. In cells and extracts the contact can be indirect. Some entries that bind do so weakly or less than the wild type.

The chains behind the UniProt entries cited, without tags or fusion partners. Residues count along the entry.
UniProt P22366: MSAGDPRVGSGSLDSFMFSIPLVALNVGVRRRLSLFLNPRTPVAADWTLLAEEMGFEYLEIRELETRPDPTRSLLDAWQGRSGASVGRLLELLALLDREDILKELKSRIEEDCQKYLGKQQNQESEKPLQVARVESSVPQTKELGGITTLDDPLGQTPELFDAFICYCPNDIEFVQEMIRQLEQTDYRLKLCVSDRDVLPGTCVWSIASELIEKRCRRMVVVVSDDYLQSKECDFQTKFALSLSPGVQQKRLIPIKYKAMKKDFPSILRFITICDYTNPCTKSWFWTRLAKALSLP
UniProt Q9QUK6, residues 26-835: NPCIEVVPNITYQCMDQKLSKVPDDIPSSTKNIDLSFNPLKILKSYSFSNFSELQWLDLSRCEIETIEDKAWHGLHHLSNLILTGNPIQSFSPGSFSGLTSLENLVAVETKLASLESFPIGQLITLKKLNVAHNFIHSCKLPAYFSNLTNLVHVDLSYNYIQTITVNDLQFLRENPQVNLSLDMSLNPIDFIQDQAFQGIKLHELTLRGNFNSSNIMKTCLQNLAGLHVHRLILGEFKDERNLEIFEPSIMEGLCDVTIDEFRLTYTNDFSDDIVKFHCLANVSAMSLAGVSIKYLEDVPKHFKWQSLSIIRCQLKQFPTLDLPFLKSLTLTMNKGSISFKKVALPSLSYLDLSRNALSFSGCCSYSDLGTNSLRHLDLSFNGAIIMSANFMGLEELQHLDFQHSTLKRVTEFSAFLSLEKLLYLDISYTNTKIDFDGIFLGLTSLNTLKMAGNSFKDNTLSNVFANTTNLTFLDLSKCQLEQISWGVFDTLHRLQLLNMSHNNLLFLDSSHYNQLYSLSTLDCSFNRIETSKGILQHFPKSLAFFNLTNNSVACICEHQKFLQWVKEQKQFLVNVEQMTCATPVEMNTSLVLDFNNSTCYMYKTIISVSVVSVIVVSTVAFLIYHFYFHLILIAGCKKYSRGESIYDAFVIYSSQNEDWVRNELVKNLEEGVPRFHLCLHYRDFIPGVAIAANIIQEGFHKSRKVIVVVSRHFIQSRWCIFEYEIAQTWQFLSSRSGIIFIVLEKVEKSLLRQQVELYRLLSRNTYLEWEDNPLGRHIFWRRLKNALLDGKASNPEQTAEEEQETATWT

Target: MyD88 (mouse (endogenous in BMDM)) (UniProt P22366)
Assay: co-IP

## TLR4 (from UniProt Q9QUK6 26-835) (receptor)
  binding: binds
